Test results taken from PMC11237593, “Human coronavirus OC43 nanobody neutralizes virus and protects mice from infection” (Journal of Virology, 2024).
Results are given in words; binding and its absence hold for the method and conditions named.

Assays:
Assay in all cases: condition: OC43 S1B+C from 3 to 100 nM or 16 to 250 nM; BLI; both purified
WNb 277 (alpaca) = target: WNb 277 (alpaca)
WNb 283 (alpaca) = target: WNb 283 (alpaca)
WNb 290 (alpaca) = target: WNb 290 (alpaca)
WNb 295 (alpaca) = target: WNb 295 (alpaca)

Measured: binding

OC43 S1B+C (S1B and S1C domains of the hCoV-OC43 spike glycoprotein) (from UniProt P36334 321-675) (domain or fragment)
no binding: all assays above
